Our source for the cell number change and AC50 values is PubChem BioAssay AID2685 (National Center for Advancing Translational Sciences (NCATS), 2010).

The other results are listed elsewhere or left out. Further columns of the screen follow, without active or inactive calls. Compounds called inactive in the main read-out are mostly missing here. Potencies come from curve fits of mixed quality, noted in brackets.

The assay in a line: qHTS Assay for Lipid Storage Modulators in Drosophila S3 Cells.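 For cell number change: cells counted by Cell Tracker Red CMTPX staining in the red channel.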 The note with it: BODIPY lipid droplet fluorescence, 18-24 h; for cell number change: measured here: cell count max response, cells fed with added oleic acid. The procedure, abridged:
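Drosophila S3 cells got compounds at several concentrations plus oleic acid (400 uM solution). Laser-scanning cytometry with 488 nm excitation read lipid droplets at 500-530 nm and cells at 575-640 nm. Percent activity was relative to 20 uM Triacsin C.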

Where [1] appears, read: measured here: cell number channel AC50, cells fed with added oleic acid.
Setting [2] is: measured here: lipid fluorescence (Fed channel) AC50, cells fed with added oleic acid.

As usually defined, the AC50 is the concentration at which the activity in the assay is half-maximal. Regarding `C=CCc1cccc(/C=N/NC(=O)CNc2ccccc2)c1O`, the cell number change is -59.6%. Besides, the AC50 under setting [1] is 14.6 µM [falling, partial curve]. Moreover, the AC50 under setting [2] is 14.6 µM [rising, partial curve, poor fit].
For `O=C(C1=NN[C@@H]2C(=O)N(c3ccccc3C(F)(F)F)C(=O)[C@H]12)c1cnccn1`, the cell number change came out at 41.3%.
On to `CC(c1ccco1)N(C(=O)CSc1ccc(Br)cc1)c1ccccn1` (stereo not drawn), for which the cell number change amounted to 9.46%. The AC50 under setting [2] is 0.103 µM [falling, full curve, poor fit].
Turning to `CC1(C)CC(=O)C2=C(C1)NC1=C(C(=O)c3ccccc31)C2c1ccc(Cl)cc1` (stereo not drawn), the cell number change stood at 33.3%. The AC50 under setting [1] is 18.4 µM [rising, single point].
On to `COc1ccc(CCn2c(C)cc3c(c2=O)C(c2ccncc2)C(C#N)=C(N)O3)cc1OC` (stereo not drawn), for which the cell number change stood at 48.7%. Further, the AC50 under setting [1] is 32.6 µM [rising, partial curve, poor fit]. For the same compound, the AC50 under setting [2] was 0.517 µM [rising, partial curve, poor fit].
Consider `Cc1ccc(C(NC(=O)NC(C)c2ccccc2)C(Cl)(Cl)Cl)cc1F` (stereo not drawn), for which the cell number change was -39.9%. Under setting [1], the half-maximal activity concentration (AC50) is 18.4 µM [falling, single point]. For the same compound, the concentration at half-maximal activity (AC50) under setting [2] is 18.4 µM [falling, single point].
As to `Cc1ccc(C)c(S(=O)(=O)NC(C)CCc2ccccc2)c1` (stereo not drawn), the cell number change was determined as 9.21%. For the same compound, under setting [2], the half-maximal activity concentration (AC50) was 5.62 µM [rising, single point].
On to `C[C@H](NC(=O)c1[nH]cnc1C(=O)Nc1ccc(CNC(=O)OC(C)(C)C)cc1)C(=O)OCc1ccccc1`, for which the cell number change was -6.09%. Further, under setting [2], the AC50 is 29.1 µM [falling, single point].
As to `CCN1C(=O)/C(=C\c2nc3ccccc3c(=O)n2CC)c2ccccc21`, the cell number change was -37.5%. The AC50 under setting [2] was 20.6 µM [falling, single point].
For `CCOC(=O)C1(CC2CCCCO2)CCN(Cc2cc(F)ccc2-n2cccn2)CC1` (stereo not drawn), the cell number change came to 16.8%. Besides, the half-maximal activity concentration (AC50) under setting [2] is 1.46 µM [falling, partial curve, poor fit].
`COC(=O)CCCC1=CC2=C(c3ccccc3)C(=O)C(C)(OC(=O)C3CCCC3)C(=O)C2=CN1C1CCCCC1` (stereo not drawn): under setting [2], the half-maximal activity concentration (AC50) was 6.51 µM [falling, single point].
For the compound `Cc1cccc(NC(=O)c2sc3nc4c(c(-c5ccco5)c3c2N)CCC4)c1`, the cell number change came out at 14%. Under setting [2], the half-maximal activity concentration (AC50) was 0.092 µM [rising, full curve, poor fit].
Regarding `CCOc1ccc(S(=O)(=O)Nc2ccccc2C(=O)NCC2CCCO2)cc1` (stereo not drawn), the cell number change turned out to be 63.5%. Further, the AC50 under setting [1] is 25.9 µM [rising, partial curve].
Regarding `CCCCc1c(O)nc2n(c1=O)CCS2`, the AC50 under setting [1] was 6.51 µM [falling, single point].
Take `Cc1cc2c(cc1S(=O)(=O)NC1CCCCC1C)OCC(=O)N2` (stereo not drawn): the cell number change is -18.6%. In addition, under setting [2], the AC50 was 0.731 µM [falling, partial curve, poor fit].
As to `CC(=O)N1CCN(c2cc3c(cc2F)c(=O)c(C(=O)O)cn3C2CC2)CC1`, the cell number change was -30.4%. Moreover, the AC50 under setting [1] is 7.31 µM [falling, partial curve]. Under setting [2], the concentration at half-maximal activity (AC50) is 6.51 µM [falling, partial curve].
As for `COc1ccc(C(=O)N2c3cc4c(cc3C(C)=CC2(C)C)OCO4)cc1`, the cell number change worked out at 14.8%.
For the compound `CCCn1nnc(NC(=O)/C=C/c2cc(Br)ccc2OC)n1`, under setting [2], the half-maximal activity concentration (AC50) is 6.51 µM [rising, single point].
For the compound `CC(C)c1ccc(/C=C/C(=O)NC(=S)Nc2ccc(CN3CCOCC3)cc2)cc1`, the cell number change is -1.91%. For the same compound, the half-maximal activity concentration (AC50) under setting [2] is 23.1 µM [falling, partial curve, poor fit].
Consider `Cc1ccc(-n2c(=S)[nH]c3nc4c(cc3c2=O)COC(C)(C)C4)cc1`, for which the cell number change was -36.1%. Further, under setting [1], the AC50 was 0.164 µM [falling, full curve]. For the same compound, under setting [2], the concentration at half-maximal activity (AC50) was 0.13 µM [falling, full curve].
On to `Cc1onc(-c2ccccc2Cl)c1C(=O)N1CCN(c2ccccc2)CC1`, for which the half-maximal activity concentration (AC50) under setting [1] is 0.58 µM [falling, single point].
Consider `CNC(=O)COc1ccc(Nc2nnc(C)c3ccccc23)cc1`, for which the cell number change is -3.91%. In addition, the half-maximal activity concentration (AC50) under setting [1] was 0.0461 µM [rising, single point].
Consider `COc1ccc(Br)c(C(=O)OCC(=O)N2CCC(Cc3ccccc3)CC2)c1`, for which the cell number change is -40.1%. In addition, under setting [1], the half-maximal activity concentration (AC50) is 7.31 µM [falling, partial curve].
Turning to `COCCSc1nnc(NS(=O)(=O)c2ccc(C)cc2)s1`, the cell number change turned out to be 19.8%. Moreover, the AC50 under setting [2] was 14.6 µM [rising, partial curve, poor fit].
Consider `COCC(=O)N/N=C\c1ccc(OC/C=C/c2ccccc2)c(OC)c1`, for which the cell number change was found to be 19.2%. Under setting [2], the half-maximal activity concentration (AC50) is 29.1 µM [falling, single point].
Consider `CN(C)S(=O)(=O)N1CCN(C(=O)c2cccs2)CC1`, for which the cell number change was found to be 8.7%.
As to `O=C(COC(=O)c1ccccn1)Nc1cc(Cl)ccc1Cl`, the cell number change is -24.5%. For the same compound, the concentration at half-maximal activity (AC50) under setting [1] was 0.82 µM [falling, full curve].
In the case of `COC(=O)c1cccc(NC(=O)CN2C(=O)c3ccccc3C2=O)c1`, the cell number change was -5.11%.
For `O=C(NCC1CC1)C1CCCN(S(=O)(=O)c2ccc(-n3cnnn3)cc2)C1` (stereo not drawn), the cell number change was 47.4%. Besides, the AC50 under setting [1] was 29.1 µM [rising, single point].
For the compound `CCc1ccc(CCC(=O)Nc2sc(C)c(C)c2C(=O)OC)o1`, the cell number change turned out to be 42.9%.
Regarding `COC(=O)C1(Cc2cc(-c3ccccc3)no2)CCN(C(=O)OC(C)(C)C)CC1`, the cell number change is -3.89%. For the same compound, under setting [2], the concentration at half-maximal activity (AC50) is 6.51 µM [falling, single point].
Take `CCn1c(-c2c[nH]c3ccccc23)n[nH]c1=S`: the cell number change is 12.4%. Besides, the AC50 under setting [2] was 6.51 µM [rising, single point].
With `CC(=O)Nc1ccc(SCC(=O)Nc2cc(C)on2)cc1`, the cell number change amounted to 3.01%. The AC50 under setting [2] was 16.4 µM [falling, single point].
As for `N#C/C(=C(/O)COC(=O)CCc1ccc(S(=O)(=O)N2CCOCC2)cc1)c1nc2ccccc2[nH]1`, the cell number change worked out at 16.3%. Further, the concentration at half-maximal activity (AC50) under setting [2] was 4.11 µM [falling, full curve].
For the compound `O=C(NNc1ccccc1Br)C(=O)n1ccc2ccccc21`, the cell number change is -37.1%. Further, the AC50 under setting [1] is 29.1 µM [falling, single point]. In addition, the AC50 under setting [2] is 4.11 µM [rising, partial curve, poor fit].
As to `N#CC(C#N)=C1c2cc(S(N)(=O)=O)ccc2-c2ccc(S(N)(=O)=O)cc21`, the cell number change is -22.6%.
Same read-out and setting: as for `COc1ccccc1N1CCN(/N=C\c2ccc(C)o2)CC1`, the figure is -6.63%.
With `CCc1cccc2c(C(=O)COC(=O)C3=NNC(=O)CC3)c[nH]c12`, the cell number change was 44.7%. Further, the AC50 under setting [2] was 29.1 µM [rising, partial curve, poor fit].
Regarding `CC(C(=O)NC(N)=O)N1C(=O)NC(c2ccccc2)(c2ccccc2)C1=O` (stereo not drawn), the cell number change was 7.14%. The AC50 under setting [2] is 29.1 µM [rising, single point].
Turning to `O=C(Cc1c2ccccc2nc2ccccc12)c1ccccc1`, the cell number change is 15.8%. Moreover, under setting [2], the concentration at half-maximal activity (AC50) was 0.206 µM [rising, full curve].
On to `O=C(CCCn1c(=S)[nH]c2ccccc2c1=O)N1CCCCC1`, for which the cell number change came to 15.6%. Besides, the half-maximal activity concentration (AC50) under setting [1] is 2.31 µM [rising, partial curve, poor fit].
Turning to `CCCCCCn1c(-c2ccco2)nc2oc3cc(OC)ccc3c(=O)c2c1=O`, the AC50 under setting [1] is 0.366 µM [rising, full curve, poor fit].
Turning to `Cc1ccc(-c2nn(-c3ccccc3)cc2CO)cc1`, the cell number change was 4.96%. Moreover, the AC50 under setting [1] is 0.058 µM [falling, partial curve, poor fit].
For the compound `O=C(Cn1nnc(-c2ccc(Cl)cc2)n1)N1CCN(C(=O)c2ccco2)CC1`, the cell number change came out at 14.8%.
Regarding `CCN(CCO)Cc1csc2ccc(C(C)(C)C)cc12`, the cell number change was determined as 1.22%. The AC50 under setting [2] is 10.3 µM [falling, partial curve, poor fit].
As to `COc1ccc(C(=O)O)cc1S(=O)(=O)N1CCN(c2ccccn2)CC1`, the half-maximal activity concentration (AC50) under setting [2] was 1.84 µM [falling, partial curve].
Consider `CN1C[C@@H]2C(c3ccccc3)C3(c4ccccc4)CC2(C3)[C@H]1c1ccccc1` (stereo partly drawn), for which the cell number change is -30.9%. For the same compound, the AC50 under setting [1] was 13 µM [falling, single point]. Besides, the AC50 under setting [2] was 14.6 µM [falling, single point].
`CCCN1C(=O)/C(=C/c2cc(C)n(C)c2C)SC1=Nc1ccc(OC)cc1`: the cell number change was determined as 130%. Also, the half-maximal activity concentration (AC50) under setting [2] is 29.1 µM [rising, single point].
As for `O=C(COc1ccc(S(=O)(=O)Nc2ccc(Cl)cc2)cc1)N1CCOCC1`, the cell number change is -11.4%. In addition, the AC50 under setting [2] is 1.84 µM [rising, partial curve, poor fit].
With `O=C(CSc1nc2[nH]ncc2c(=O)[nH]1)c1ccccc1`, the cell number change amounted to 30.1%. Further, the half-maximal activity concentration (AC50) under setting [1] was 7.31 µM [rising, single point]. The half-maximal activity concentration (AC50) under setting [2] was 6.51 µM [rising, single point].
With `CC1=C(C(=O)OC2CCCCCCC2)C(c2cc3c(cc2Br)OCO3)CC(=O)N1` (stereo not drawn), the cell number change was -92.5%. Besides, the AC50 under setting [2] was 29.1 µM [falling, single point].
For the compound `COc1ccc(C)cc1NC(=O)Cn1cnc2sc(C)c(S(=O)(=O)N3CCOCC3)c2c1=O`, the cell number change worked out at 8.06%. Also, the AC50 under setting [2] was 25.9 µM [falling, single point].
For the compound `COc1ccc(CCn2c(=N)c(C(=O)NCC3CCCO3)cc3c(=O)n4cccc(C)c4nc32)cc1OC` (stereo not drawn), the cell number change is -1.79%. The concentration at half-maximal activity (AC50) under setting [2] is 29.1 µM [falling, single point].
As to `Cc1cc(NC(=O)CCC(=O)N(c2ccccc2F)C(C(=O)NC2CCCC2)c2ccccc2)no1` (stereo not drawn), the cell number change is 7.83%.
As to `C=C(C)Cn1c(=S)[nH]c2ccccc2c1=O`, the cell number change came to 27%. For the same compound, the AC50 under setting [1] is 0.146 µM [rising, full curve]. Besides, under setting [2], the AC50 was 0.58 µM [rising, full curve].
As for `CCOC(=O)c1c(NC(=S)Nc2ccccc2)sc2c1CCN(C)C2`, the cell number change was -24.4%. Besides, the AC50 under setting [2] is 4.61 µM [falling, full curve, poor fit].
For the compound `COc1ccc(OCC(=O)N2CCOCC2)cc1`, the cell number change is -6.08%. In addition, under setting [2], the concentration at half-maximal activity (AC50) was 3.26 µM [falling, partial curve].
Turning to `O=C(Cn1c(COc2ccccc2)nc2ccccc21)Nc1cccc(Cl)c1`, the cell number change was -15.1%. Further, the AC50 under setting [1] was 6.51 µM [falling, single point]. In addition, the AC50 under setting [2] was 3.66 µM [falling, single point].
With `O=C(CNC(=O)c1ccc(Cl)cc1Cl)OCc1ccccc1`, the cell number change is -17.3%.
With `CCOC(=O)c1ccc(S(=O)(=O)NNC(=O)c2ccc3c(c2)nc(C)n3CC)cc1`, the half-maximal activity concentration (AC50) under setting [2] is 18.4 µM [rising, partial curve].
